Measured values: publication PMC12431657, “Discovery and mechanistic insights of dibenzoylmethane as a broad spectrum inhibitor of coronavirus” (PLOS Pathogens, 2025)
Structures can show the parent of a compound that is named as a salt. Where two headings read alike, the source gives them in different places. Screen size: about 3,300 compounds; about 95 (3%) showed an effect of 50% or more. The list shows a part of the results.

Test system: HCoV-229E
Parameters: species or system Huh-7; HTS, protection from HCoV-229E induced cell death, luminescent cell viability (CellCounting-Lite 2.0), inhibition rate
Conditions: 24 h post infection, 1 h compound pre-incubation, 10 µM, inhibitor

SMILES | 229E Inhibition rate (229E Inhibition rate, 24 h) [%] | 229E Inhibition rate [%]
C=C1CC[C@@H]2[C@](C)(CO)[C@H](O)CC[C@@]2(C)[C@@H]1CCC1=CCOC1=O [14-Deoxyandrographolide] | 23.1 | –
CC(CC(=O)C[C@@H](C)[C@H]1CC(=O)[C@@]2(C)C3=C(C(=O)C[C@]12C)[C@@]1(C)CC[C@H](O)C(C)(C)[C@@H]1C[C@@H]3O)C(=O)O (stereo partly shown) [Ganoderic acid B] | – | 7.7
CCCCCc1cc(=O)c2ccccc2n1C [1-Methyl-2-pentyl-4(1H)-quinolinone] | – | 6.2
CC(C)=CCC[C@](C)(O[C@@H]1O[C@H](CO)[C@@H](O)[C@H](O)[C@H]1O)[C@H]1CC[C@]2(C)[C@@H]1[C@H](O)C[C@@H]1[C@@]3(C)CC[C@H](O)C(C)(C)[C@@H]3[C@@H](O[C@@H]3O[C@H](CO)[C@@H](O)[C@H](O)[C@H]3O)C[C@]12C [Ginsenoside Rg1] | – | 48.2
Nc1ncnc2c1ncn2[C@@H]1O[C@H](COP(=O)(O)OP(=O)(O)O)[C@@H](O)[C@H]1O [Adenosine 5'-diphosphate] | – | 9
O=c1cc(-c2ccccc2)oc2cc(O)cc(O)c12 [Chrysin] | – | 0
O=C1C[C@@H](c2ccccc2)Oc2cc(O[C@@H]3O[C@H](CO)[C@@H](O)[C@H](O)[C@H]3O)cc(O)c21 [Pinocembrin-7-O-β-D-glucopyranoside] | – | 19.6
CO[C@@H]1C=C2[C@@H]3CC(C)(C)CC[C@]3(CO)[C@H](O)C[C@@]2(C)[C@]2(C)CC[C@H]3[C@](C)(CO)[C@@H](O[C@@H]4O[C@H](C)[C@H](O)[C@H](O[C@@H]5O[C@H](CO)[C@@H](O)[C@H](O)[C@H]5O)[C@H]4O)CC[C@]3(C)[C@@H]12 [Saikosaponin B4] | – | 21.6
COc1cc2c(c(OC)c1OC)-c1c(cc(OC)c(OC)c1OC)C[C@H](C)[C@H](C)C2 [Schisandrin A] | – | 35.1
C=C1C(=O)[C@@]23[C@H](O)C[C@@H]4C(C)(C)C(=O)CC[C@@]4(C)[C@@H]2CC[C@@H]1[C@H]3O [Glaucocalyxin A] | – | 16.7
Cc1c(O)cc2c(c1O)C(=O)c1ccccc1C2=O [Rubiadin] | – | 38.1
COc1cc2oc(=O)cc(-c3ccccc3)c2cc1O [Dalbergin] | – | 14.9
N[C@@H](CS(=O)O)C(=O)O [L-Cysteinesulfinic acid] | – | 11
CC(C)[C@H](C)CC[C@@H](C)[C@H]1CC[C@H]2[C@@H]3CC=C4C[C@@H](O)CC[C@]4(C)[C@H]3CC[C@]12C [Campesterol] | – | 11.1
CCCCCC/C(C=O)=C\c1ccccc1 [α-Hexylcinnamaldehyde] | – | 24.3
CN(C)C(N)=NCCC[C@H](N)C(=O)O [Asymmetric dimethylarginine] | – | 14.5
Nc1nc2c(ncn2[C@H]2C[C@H](O)[C@@H](CO)O2)c(=O)[nH]1 [2'-Deoxyguanosine monohydrate] | 1.5 | –
CCCCCCCCCCCCCC(=O)O[C@H]1CC[C@@]2(C)C(=CC[C@H]3[C@@H]4CC[C@H]([C@H](C)CCCC(C)C)[C@@]4(C)CC[C@@H]32)C1 [Cholesterol myristate] | – | 4.7
CC(=O)OCCC(C)CCC=C(C)C (stereo not shown) [Citronellyl acetate] | – | 16.2
COC(=O)Cc1ccc(O)cc1 [Methyl 4-hydroxyphenylacetate] | – | 17.1
c1ccc(CNc2ncnc3[nH]cnc23)cc1 [6-Benzylaminopurine] | – | 5.7
Cc1cc(C(=O)O)ccc1O [4-Hydroxy-3-methylbenzoic acid] | – | 61.9
CC(=O)O[C@H]1C(=O)[C@@]2(C)[C@H]([C@H](OC(=O)c3ccccc3)[C@]3(O)C[C@H](OC(=O)[C@H](O)[C@@H](NC(=O)c4ccccc4)c4ccccc4)C(C)=C1C3(C)C)[C@]1(OC(C)=O)CO[C@@H]1C[C@@H]2O [7-epi-Taxol] | 29.6 | –
C[C@H](CCC(=O)O)[C@H]1CC[C@H]2[C@@H]3[C@@H](O)C[C@@H]4C[C@H](O)CC[C@]4(C)[C@H]3CC[C@]12C [Ursodeoxycholic acid] | – | 27.1
O=C(O)CCCCc1ccccc1 [5-Phenylvaleric acid] | – | 38
COc1cc([C@@H]2c3cc4c(cc3C[C@H]3COC(=O)[C@@H]32)OCO4)cc(OC)c1OC [Deoxypodophyllotoxin] | – | 16.7
Cc1cn([C@@H]2O[C@H](CO)[C@@H](O)[C@H]2O)c(=O)nc1N [5-Methylcytidine] | – | 18.9
COc1cc([C@@H]2OC[C@@H]3[C@H]2CO[C@H]3c2cc(OC)c(O[C@@H]3O[C@H](CO)[C@@H](O)[C@H](O)[C@H]3O)c(OC)c2)cc(OC)c1O [Acanthoside B] | – | 15.9

Whole records as entered above. Values in the order: 229E Inhibition rate (229E Inhibition rate, 24 h) [%] | 229E Inhibition rate [%]
`CC(=O)OCCC(C)CCC=C(C)C` (stereo not shown) [Citronellyl acetate] in the list: – | 16.2
`Cc1c(O)cc2c(c1O)C(=O)c1ccccc1C2=O` [Rubiadin] in the list: – | 38.1

(list continues)

SMILES | 229E Inhibition rate (229E Inhibition rate, 24 h) [%] | 229E Inhibition rate [%]
COc1cc(/C=C/C(=O)OC[C@H]2O[C@H](O[C@]3(CO)O[C@H](CO)[C@@H](O)[C@@H]3OC(=O)/C=C/c3cc(OC)c(OC)c(OC)c3)[C@H](O)[C@@H](O)[C@@H]2O)cc(OC)c1O [Tenuifoliside C] | – | 19.9
CCCCCCCC/C=C\CCCCCCCC(=O)O [Oleic acid] | 9.2 | –
COc1cc([C@@H]2[C@H]3CO[C@@]4(O)C(=O)[C@@H]2C=C([C@H]2Oc5cc(O)cc(O)c5C(=O)[C@@H]2O)[C@@H]34)ccc1O [Silydianin] | – | 51.4
CCOC(=O)/C=C/c1ccc(O)c(O)c1 [Ethyl Caffeate] | – | 14.8
CC1=C(C)C(=O)O[C@@H]([C@](C)(O)[C@H]2CC[C@H]3[C@@H]4[C@@H]5O[C@@H]5[C@@]5(O)CC=CC(=O)[C@]5(C)[C@H]4CC[C@]23C)C1 [Withanolide A] | – | 18.4
Cc1ccc2oc(-c3ccccc3)cc(=O)c2c1 [6-Methylflavone] | – | 0
O=c1cc(CCc2ccccc2)oc2c1[C@H](O)[C@@H](O)[C@@H](O)[C@@H]2O [Agarotetrol] | – | 42.2
CC(C)=CCC[C@](C)(O)[C@H]1CC[C@]2(C)[C@@H]1[C@H](O)C[C@@H]1[C@@]3(C)CC[C@H](O)C(C)(C)[C@@H]3[C@@H](O[C@@H]3O[C@H](CO)[C@@H](O)[C@H](O)[C@H]3O[C@@H]3OC[C@@H](O)[C@H](O)[C@H]3O)C[C@]12C [Notoginsenoside R2] | – | 9.5
COC(=O)CCc1ccccc1 [Methyl 3-phenylpropanoate] | – | 23.3
O=C(O)CCc1cccc(O)c1 [3-(3-Hydroxyphenyl)propionic acid] | – | 18.6
CC1(C)CCC[C@]2(C)[C@H]3CCO[C@]3(C)CC[C@@H]12 [Ambroxide] | – | 53.4
C[C@@H]1C(=O)O[C@H]2[C@H](O)[C@@]34[C@H]5C[C@@H](C(C)(C)C)[C@]36[C@@H](OC(=O)[C@@H]6O)O[C@@]4(C(=O)O5)[C@@]12O [Ginkgolide B] | – | 25.6
OC[C@H]1O[C@@H](Oc2cc(/C=C/c3cc(O)cc(O)c3)ccc2O)[C@H](O)[C@@H](O)[C@@H]1O [Piceatannol 3'-O-glucoside] | – | 27.6
COC(=O)CC/C(C)=C/Cc1c(O)c2c(c(C)c1OC)COC2=O [Methyl mycophenolate] | – | 16.7
CC(=O)/C=C/C1=C(C)CCCC1(C)C [β-Ionone] | – | 17.3
COc1cc([C@H]2OC[C@H]3[C@@H]2CO[C@@H]3c2ccc(O[C@@H]3O[C@H](CO)[C@@H](O)[C@H](O)[C@H]3O)c(OC)c2)ccc1O [Pinoresinol 4-O-β-D-glucopyranoside] | – | 11.1
O=c1c(O[C@@H]2O[C@H](CO)[C@H](O)[C@H](O)[C@H]2O)c(-c2ccc(O)c(O)c2)oc2cc(O)cc(O)c12 [Hyperoside] | – | 7.6
Cn1cncc1C[C@H](NC(=O)CCN)C(=O)O [L-Anserine nitrate] | 9.8 | –
O=C1N[C@@H](Cc2cnc[nH]2)C(=O)N2CCC[C@@H]12 [Cyclo(his-pro) (TFA)] | – | 17.7
C[C@@H]1C[C@H]2OC(=O)[C@@]3(C)CCC[C@@](C)([C@@H]23)[C@@]1(O)CCc1ccoc1 [Marrubiin] | – | 59.8
CC(C)=CCc1c2c(c(O)c3c1O[C@]14C(=C[C@@H]5C[C@@]1(C/C=C(/C)C(=O)O)C(C)(C)O[C@H]4C5=O)C3=O)C=CC(C)(C)O2 [Morellic acid] | – | 0.3
COc1ccc(/C=C/C(=O)CC(=O)/C=C/c2ccc(OC)c(OC)c2)cc1 [Di-O-methyldemethoxycurcumin] | – | 10.3
C=C1[C@@H]2CC[C@H]3[C@]4(C)C[C@H](O[C@@H]5O[C@H](CO)[C@@H](OS(=O)(=O)O)[C@H](OS(=O)(=O)O)[C@H]5OC(=O)CC(C)C)CC(C(=O)O)(C(=O)O)[C@H]4CC[C@]3(C2)[C@H]1O [Carboxyatractyloside (dipotassium)] | – | 3
COC(=O)C1=CO[C@@H](C)[C@H]2CN3CC[C@]4(C(=O)Nc5ccccc54)[C@@H]3C[C@H]12 [Mitraphylline] | – | 5.5
[C-]#[N+]C(=C\c1ccc(OC)cc1)/C(=C/c1ccc(OC)cc1)[N+]#[C-] [Xanthocillin X permethyl ether] | – | 4.6
C[C@H](CCC(=O)NCCS(=O)(=O)O)[C@H]1CC[C@H]2[C@@H]3CC[C@@H]4C[C@H](O)CC[C@]4(C)[C@H]3C[C@H](O)[C@]12C [Taurodeoxycholate (sodium salt)] | – | 12.5
